{"source": "PubChem BioAssay AID686937 (Drosophila RNAi Screening Center, 2013)", "screen": "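Genes whose loss weakens secretory pathway function in fly cells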 (primary screen)", "cell system": "Drosophila S2 cells expressing secreted horseradish peroxidase", "reagent": "long dsRNA against Drosophila genes", "timing": "about 5.5 days (5 days dsRNA, then 12 h reporter induction)", "conditions": "reporter expression induced after 5 days of dsRNA, read 12 h later; inducer not stated", "measurement": "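After 5 days of dsRNA and 12 h of reporter induction, medium peroxidase read by chemiluminescence and scored as per-plate z-score; higher values mean more reporter released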", "direction": "z-score: higher = more reporter secreted into medium", "note": "The deposit covers about 23,000 reagents; this is a random part of those that have a named target and a result. 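Reduced-secretion tags in replicate 1 do not always agree with the z-scores; no criterion for assigning the tags was given.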 Reagent sequences are not shown. Not given: the amount of reagent."}
{"gene knocked down": "CG8349", "dsRNA": "DRSC03083", "z-score, replicate 1": 0.46, "z-score, replicate 2": 0.27}
{"gene knocked down": "grau", "dsRNA": "DRSC04691", "z-score, replicate 1": 0.43, "z-score, replicate 2": 0.33}
{"gene knocked down": "trv", "dsRNA": "DRSC13846", "z-score, replicate 1": 0.36, "z-score, replicate 2": 0.02}
{"gene knocked down": "trv", "dsRNA": "DRSC14559", "z-score, replicate 1": -0.04, "z-score, replicate 2": -0.73}
{"gene knocked down": "trv", "dsRNA": "DRSC14560", "z-score, replicate 1": 0.3, "z-score, replicate 2": 0.51}
{"gene knocked down": "trv", "dsRNA": "DRSC14561", "z-score, replicate 1": 0.39, "z-score, replicate 2": 0.67}
{"gene knocked down": "adp", "dsRNA": "DRSC06916", "z-score, replicate 1": 0.33, "z-score, replicate 2": 0.4}
{"gene knocked down": "PGRP-SC2", "dsRNA": "DRSC06481", "z-score, replicate 1": 0.16, "z-score, replicate 2": 0.38}
{"gene knocked down": "Gas41", "dsRNA": "DRSC03156", "z-score, replicate 1": -0.09, "z-score, replicate 2": -0.2}
{"gene knocked down": "CG2794", "dsRNA": "DRSC00534", "z-score, replicate 1": 0.4, "z-score, replicate 2": 0.38}
{"gene knocked down": "CkIIbeta", "dsRNA": "DRSC20230", "z-score, replicate 1": -0.48, "z-score, replicate 2": -0.41}
{"gene knocked down": "CG13876", "dsRNA": "DRSC08346", "z-score, replicate 1": 0.21, "z-score, replicate 2": 0.22}
{"gene knocked down": "Gapdh2", "dsRNA": "DRSC20246", "z-score, replicate 1": -0.23, "z-score, replicate 2": -0.05}
{"gene knocked down": "Ubc4", "dsRNA": "DRSC11312", "z-score, replicate 1": 0.56, "z-score, replicate 2": 0.37}
{"gene knocked down": "CCAP-R", "dsRNA": "DRSC14891", "z-score, replicate 1": 0.17, "z-score, replicate 2": 0.3}
{"gene knocked down": "CCAP-R", "dsRNA": "DRSC15967", "z-score, replicate 1": 0.2, "z-score, replicate 2": 0.14}
{"gene knocked down": "Cep135", "dsRNA": "DRSC09345", "z-score, replicate 1": 0.21, "z-score, replicate 2": -0.13}
{"gene knocked down": "Cep135", "dsRNA": "DRSC10244", "z-score, replicate 1": 0.2, "z-score, replicate 2": 0.32}
{"gene knocked down": "cold", "dsRNA": "DRSC00538", "z-score, replicate 1": 0.12, "z-score, replicate 2": 0.38}
{"gene knocked down": "5-HT7", "dsRNA": "DRSC12635", "z-score, replicate 1": 0.07, "z-score, replicate 2": 0.19}
{"gene knocked down": "Sec24AB", "dsRNA": "DRSC06478", "z-score, replicate 1": -0.87, "z-score, replicate 2": -0.94}
{"gene knocked down": "e(r)", "dsRNA": "DRSC18768", "z-score, replicate 1": 0.3, "z-score, replicate 2": 0.35}
{"gene knocked down": "Cbp80", "dsRNA": "DRSC18450", "z-score, replicate 1": 0.29, "z-score, replicate 2": 0.48}
{"gene knocked down": "Cc2d2a", "dsRNA": "DRSC06750", "z-score, replicate 1": 0.33, "z-score, replicate 2": 0.22}
{"gene knocked down": "Cc2d2a", "dsRNA": "DRSC06779", "z-score, replicate 1": 0.28, "z-score, replicate 2": 0.33}
{"gene knocked down": "CG5641", "dsRNA": "DRSC15852", "z-score, replicate 1": 0.34, "z-score, replicate 2": 0.44}
{"gene knocked down": "Cpr49Ae", "dsRNA": "DRSC07201", "z-score, replicate 1": 0.12, "z-score, replicate 2": -0.66}
